Measured values as given in patent US20180148504A1.

Tests used:
[1] = biological target: recombinant human folate receptor alpha (rhFRα) (human); experiment: direct ELISA on plate-coated FRα, hybridoma supernatants
[2] = biological target: recombinant purified FRα (ECL assay calibrator) (human); experiment: ECL sandwich standard curve, FRα calibrator titrated; binder = capture Ab; detection 1A8.G11.E7, 24H8.D3, 19D2.G9, 19D4.B7 listed in the legend, not separable
[3] = biological target: recombinant purified FRα (ECL assay calibrator) (human); experiment: ECL sandwich pair screening, calibrator and serum samples
[4] = biological target: recombinant purified FRα (ECL assay calibrator) (human); experiment: ECL sandwich standard curve on FRα calibrator
[5] = biological target: recombinant purified FRα (ECL assay calibrator) (human); experiment: ECL sandwich standard curve, FRα calibrator titrated; capture 9F3; binder = detection Ab

Row | binding [1] | binding [2] | binding [3] | binding [4] | binding [5] | Binder
1 | binds | – | – | – | – | Monoclonal antibody 26A9.C4 (antibody, mouse IgG1, V domains shown) VH: SGARELVKPGASVKLSCKTSGFTFSSSFISWLKQKPGQSLEWIAWIYGGNGGTSYNQNFTGKAQLTVDTSSSTAYMQFSSLTTEDSAVYYCASETYGNYWYFDVWGAGTTVTVSS VL: QSPASLSASVGDTVTITCRASGNIHNYLAWYQQKQGKSPQLLVYNAKTLADGVPSRFSGSGSGTQYSLKINSLQPEDFGNYYCQHFWSTPYTFGGGTKLEIK
2 | binds | – | – | – | – | Monoclonal antibody 24H8.F3 (antibody, mouse IgG1, V domains shown) VH: GPGLVAPSQSLSITCTVSGFSLTSYGVSWVRQPPGKGLEWLGVIWGDGSTNYHSTLISRLSISKDNSKSQVFLKLNSLQTDDTATYYCAKPHPAATGAMDYWGQGTSVTVSS VL: TTSSLSASLGDRVTISCRASQDISNHLNWYQQKPDGTIKLLIYYTSKLHSGVPSRFSGSGSGTDYSLTISNLEQEDIATYFCQQGNTLWTFGGGTKLEIK
3 | binds | binds | binds | binds | binds | Monoclonal antibody 24H8.D3 (antibody, mouse IgG1, V domains shown) VH: QVQLKESGPGLVAPSQSLSITCTVSGFSLTSYGVSWVRQPPGKGLEWLGVIWGDGSTNYHSTLISRLSISKDNSKSQVFLKLNSLQTDDTATYYCAKPHPAATGAMDYWGQGTSVTVSS VL: DIQMTQTTSSLSASLGDRVTISCRASQDISNHLNWYQQKPDGTIKLLIYYTSKLHSGVPSRFSGSGSGTDYSLTISNLEQEDIATYFCQQGNTLWTFGGGTKLEIK
4 | – | binds | – | binds | binds | Monoclonal antibody 19D4.B7 (antibody, mouse IgG2a, V domains shown) VH: GARELVKPGASVKLSCTASGFNIKHPYMHWVKQRPDQGLEWIGRIDPANGNTKYDPKFQGKATITADTSSNTAYLQLSSLTSEDTAVYYCGREEVADYTMDYWGQGTSVTVSS VL: PASLAVSLGQRATISCRASESVDTYGNNFIHWYQQKPGQPPKLLIYLASNLESGVPARFSGSGSRTDFTLTIDPVEADDAATYYCQQNNGDPWTFGGGTKLEIKR

Continued, binder first:

Row | Binder | binding [1] | binding [2] | binding [3] | binding [4] | binding [5]
5 | Monoclonal antibody 1C6.E12.G8 (antibody, mouse IgG1, V domains shown) VH: SGARELVKPGASVKLSCKTSGFTFNSSYITWLKQKPGQSLEWIAWIYAGNGGTTYNQKFTGKAQLTVDTSSSTAYMQFSSLTTEDSAIYYCASETYTNYWYFDVWGSGTTVTVSS VL: QSPASLSASVGETVTITCRASGNIHNYLAWYQQKQGKSPQLLVYNAKTLADGVPSRFSGSGSGTQYSLKINSLQPEDFGSYYCQHFWSTPYTFGGGTKLEIK | binds | – | – | – | –
6 | Monoclonal antibody 6A2.G7 (antibody, mouse IgG1, V domains shown) VH: GADLVKPGASVKMSCKASGYTFSRYNMHWVKQTPGQGLEWIGTIYPGNGDTSYNEKFKGKATLTADKSSSIVYMQVSSLTSEASAVYYCARDYGSRYALDYWGQGTSVTVSS VL: SSLSASLGDRVTISCRASQDISNYLNWYQQKPDGTVKLLIYYTSRLHSGVPSRFSGSGSGTDYSLTISNLEQEDIATYFCQQGNTLPYTFGGGTKLEIK | binds | – | – | – | –
7 | Monoclonal antibody 1D2.D8.G10 (antibody, mouse IgG1, V domains shown) VH: QSGTVLARPGASVKMSCKASGYSFTSNWMHWIKQRPGQGLEWIGAIYPGNSDTSYNQKFKGKAKLTAVTSASTAYMELSSLTNEDSAVYHCTRGDGSSFWYFDVWGAGTTVTVSS VL: QSPASLVVSLGQRATISCRASKSVSTSGYSYMYWYQQKSGQPPKLLIYLASNLESGVPARFSGGGSGTDFTLNIHPVEEEDAATYYCQQSRELPPTFGGGTKLEIK | binds | – | – | – | –
8 | Monoclonal antibody 1A8.G11.E7 (antibody, mouse IgG1, V domains shown) VH: ESGPGLVAPSQSLSITCTVSGFSLTSYGVSWVRQPPGKGLEWLGVIWGDGSTNYHSTLISRLSISKDNSKSQVFLKLNSLQTDDTATYYCAKPHPAATGAMDYWGQGTSVTVSS VL: TQTTSSLSASLGDRVTISCRASQDISNHLNWYQQKPDGTVKLLIYYTSRLHSGVPSRFSGSGSGTDYSLTISNLEQEDIATYFCQQGNTLWTFGGGTKLEIK | binds | binds | – | – | binds

No constants are given. Whether binding was seen depends on the method and setting. Binding can be weak; no strength is given.
